The list shows a part of the results.

Chains of the proteins cited; added tags and fusions are not shown.
UniProt Q0JBA9, entry or part of it: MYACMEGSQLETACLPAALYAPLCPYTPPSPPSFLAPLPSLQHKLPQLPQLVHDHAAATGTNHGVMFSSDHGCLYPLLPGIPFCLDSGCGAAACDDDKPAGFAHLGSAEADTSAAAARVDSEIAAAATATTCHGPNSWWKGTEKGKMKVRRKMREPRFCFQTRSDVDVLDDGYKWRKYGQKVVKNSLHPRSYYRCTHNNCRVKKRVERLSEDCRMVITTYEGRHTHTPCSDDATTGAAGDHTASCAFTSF

This test concerns the target OsWRKY34 (Oryza sativa, UniProt Q0JBA9 1-250). Description: protein-binding microarray (RPBM); PBS, 2% BSA, 51.3 ng/ul salmon testes DNA, 50 uM zinc acetate, 200 nM TF, 25 C, 1 h; high values mean tight binding. Particulars: protein: recombinant; tags: N-terminal polyhistidine and DsRed monomer fusion (pET32a); label: CyDye5-dUTP incorporated in the synthesized complementary strand; 3' TTTTT single-stranded linker to array surface; dsDNA, one strand shown. In outline: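 Per-feature fluorescence intensity (arbitrary units), read on an Axon 4000B scanner, is the binding signal. Transcription factors carrying an N-terminal polyhistidine tag and DsRed fusion were expressed in E. coli BL21-CodonPlus and purified on Ni–NTA. A custom Agilent array, made double-stranded by primer extension with Cy5-dUTP and blocked with 2% BSA, was incubated with 200 nM protein in PBS, 2% BSA, salmon testes DNA and 50 µM zinc acetate at 25 °C for 1 h and then washed.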
As to “GTTTGACTTTGACCTGAAACGGAGGGAGTAGTATATTGGGCGGAGTCACCTAGTGCAG”, the binding signal is 8830 fluorescence intensity (a.u.).

Regarding “CACACGCTCGCATCGCGGCTGCCTTTGGACCTCGGACTCGCGGAGTCACCTAGTGCAG”, the binding signal was 8180 fluorescence intensity (a.u.). For “TCTCAACCAAAAAAAAAAACTTCCTTTATTCCTTTTTTTTCGGAGTCACCTAGTGCAG” the value was 8050 fluorescence intensity (a.u.).

For the sequence “AGTTCCGCCTCGGTTGGCACCCAAAGTAGGTCCTTAGTATCGGAGTCACCTAGTGCAG”, the binding signal was 9700 fluorescence intensity (a.u.). In the case of “GTATATTTTAACATTGATTACCTCGTACACCTCATCTGTCCGGAGTCACCTAGTGCAG”, the binding signal was 9710 fluorescence intensity (a.u.). As to “TCTTTTTGCAGCTGACATGTGGGGCCACACTTTTTTTTATCGGAGTCACCTAGTGCAG”, the binding signal was 8190 fluorescence intensity (a.u.). The result for “CCGCAACGACCACAAATCACCATCTGCTTTCTAGTTTCTTCGGAGTCACCTAGTGCAG” reads 8330 fluorescence intensity (a.u.); that for “CGGTTTTGACGGACGTGGTGCCCACGTGGCTAGTTTGACTCGGAGTCACCTAGTGCAG”, 8980 fluorescence intensity (a.u.); that for “CCCGGGCATCTCGCCACACCGTTACACACCGTTGCATTCCCGGAGTCACCTAGTGCAG”, 9620 fluorescence intensity (a.u.). As for “GCTATGTTGTGATTTGTGGACTGACCAAGATTGGACTTCTCGGAGTCACCTAGTGCAG”, the binding signal was 8220 fluorescence intensity (a.u.). For “ACATGCAACCACACAACTCAGCTACAATACCATCAAGATGCGGAGTCACCTAGTGCAG”, the binding signal is 8210 fluorescence intensity (a.u.). For “GCACATATGTGGCATTCTGTTCATCTCCTGGCATTTGTGTCGGAGTCACCTAGTGCAG” the value was 8230 fluorescence intensity (a.u.); for “CATTTAAAGATTAGAGACGATGGTGGTGTTGACCAAGATTCGGAGTCACCTAGTGCAG”, 8430 fluorescence intensity (a.u.). Take “CCCTTTGCCTTGGATTTTCCACTTGCACTTGCACTTCCTCCGGAGTCACCTAGTGCAG”: the binding signal was 12200 fluorescence intensity (a.u.). In the case of “GCATCCATTCTCGATTGCTTTCTTTCAGCCATGTTGATGCCGGAGTCACCTAGTGCAG”, the binding signal was 8440 fluorescence intensity (a.u.). For “ACCTTTCCAATACTTTTCAATATCCGTTTCTGCCACGCCACGGAGTCACCTAGTGCAG”, the binding signal was 8830 fluorescence intensity (a.u.). As for “AGTACTCTGTCCTTGTCATGCACGATTCACTTACTTCCCACGGAGTCACCTAGTGCAG”, the binding signal is 10300 fluorescence intensity (a.u.). Regarding “ACGGAGAGACCACACTTAACACTTGCATTAGACCACAAGTCGGAGTCACCTAGTGCAG”, the binding signal is 8210 fluorescence intensity (a.u.). The result for “TTCATATGTATTTCATGCGTTTTGCAATCCTCTGTTTAACCGGAGTCACCTAGTGCAG” reads 9270 fluorescence intensity (a.u.); that for “CACCGCGCACCGATCAACCTTGGCCTGACCAACCTCCCCACGGAGTCACCTAGTGCAG”, 9210 fluorescence intensity (a.u.); that for “GCCTGAAGAGGAATCGGCCTACGTCTGACGCATACATTCTCGGAGTCACCTAGTGCAG”, 10400 fluorescence intensity (a.u.). In the case of “ACTGAAATTATGGTATTGATCGTTTTTTTTTCAAAATTTTCGGAGTCACCTAGTGCAG”, the binding signal is 9000 fluorescence intensity (a.u.). The result for “CTACCAACCTGTTCATCATGGCCCGACTCCATTCATGTCACGGAGTCACCTAGTGCAG” reads 10300 fluorescence intensity (a.u.); that for “ATGTTATGCTACTTATTCATGTTTCAATCCATATTCAAATCGGAGTCACCTAGTGCAG”, 11000 fluorescence intensity (a.u.); that for “GGACACGTGGCAGTGTGGGTGGTGGGGTCCTAGGGGCGTCCGGAGTCACCTAGTGCAG”, 15900 fluorescence intensity (a.u.). For “TTTATTTTCTTTCTCTCTCTCTCGGCCTTAATCGCATATACGGAGTCACCTAGTGCAG” the value was 12600 fluorescence intensity (a.u.); for “TCTGTCTCAACTCCCATTTTTCACCTTGGGACAGAGGGCACGGAGTCACCTAGTGCAG”, 11000 fluorescence intensity (a.u.). The result for “GGGCATATTTCTCTATTTTTCTATTCCTATGGTTTGAAATCGGAGTCACCTAGTGCAG” reads 9080 fluorescence intensity (a.u.). Turning to “AAGTTCTTAAGTCTCAACTACTCCTAGAGTCCTATTATTCCGGAGTCACCTAGTGCAG”, the binding signal is 8130 fluorescence intensity (a.u.). With “TTTGTTTTGTTATTAGTCTATGTTTAATACTAGTATATTTCGGAGTCACCTAGTGCAG”, the binding signal is 8990 fluorescence intensity (a.u.). The result for “TCATCACAGTCTTTTTTTTTCTCTTCATCCTTAATCCCTCCGGAGTCACCTAGTGCAG” reads 8030 fluorescence intensity (a.u.); that for “ACACTACTCTTCTCTCTCTTTTTTATCTTTTTAAAATATACGGAGTCACCTAGTGCAG”, 8670 fluorescence intensity (a.u.); that for “TTGTACGGGTACTATTCACTGTCTGATATTATTATTTTTGCGGAGTCACCTAGTGCAG”, 8460 fluorescence intensity (a.u.). As to “GGGATGGAGGTAGTATTTGTTAGTGGCTTATCATACATTTCGGAGTCACCTAGTGCAG”, the binding signal was 10800 fluorescence intensity (a.u.).

Turning to “AACAAATATCGTTCCTCGGTGTCGTCATCGTGTTTGGATCCGGAGTCACCTAGTGCAG”, the binding signal was 8260 fluorescence intensity (a.u.). The result for “AATCACCACCTCGCCTCGCGTCACCACCTCTCGCCGCCGCCGGAGTCACCTAGTGCAG” reads 9010 fluorescence intensity (a.u.); that for “TGCTTGGTTGCCACATCTTTCTATGCATTCACAATTCCAGCGGAGTCACCTAGTGCAG”, 9950 fluorescence intensity (a.u.); that for “ATCTCTATGTTTTCTTATCCATATTATTTAAATTTTATTTCGGAGTCACCTAGTGCAG”, 11800 fluorescence intensity (a.u.). Consider “CACCATGTGCTACATTTGTCTTTTCTTTCAAGTTATTTATCGGAGTCACCTAGTGCAG”, for which the binding signal is 9050 fluorescence intensity (a.u.).

As to “GGCCTAACTGTCCTATGCGCTAGTCGCCTCCGACCAAACGCGGAGTCACCTAGTGCAG”, the binding signal was 9270 fluorescence intensity (a.u.). As to “TGCCCACCACGCGTCTCTCCCAAAATTCGCGGCCTCCTATCGGAGTCACCTAGTGCAG”, the binding signal was 8730 fluorescence intensity (a.u.). The result for “GTACACGTTACCCGCGTGGGTGTGGGTATGGGGATGATTTCGGAGTCACCTAGTGCAG” reads 11700 fluorescence intensity (a.u.).

These data come from publication PMC7819943, “Rice protein-binding microarrays: a tool to detect cis-acting elements near promoter regions in rice”.
